Here are results for one compound from patent US11903397B2, “Hay preservative and methods for preservation of hay” (DANSTAR FERMENT AG, priority 2014, dated 2024).

Each structure is given as a SMILES string. Marks after values point to notes of the source that are not given here.

A short description of this series: Fermentation product of alfalfa hay (Example 2).

For `CCC(=O)O` [BPA, Propionic Acid], the pH (day 0) is listed as 6.07^c, the pH (day 90) is listed as 8.29^a and the pH (day 180) is reported as 7.80^a. Besides, the LA runs as follows: (day 90) 0.49 g/kg DM; (day 180) 0.17 g/kg DM.
